# Experimental data taken from the supplement of paper PMC10338343.
# ± gives the standard deviation. This is a selection; strong and weak results do not stand in their true shares. Many entries were measured with a wide error.
# How the values were obtained:
# [1] = test system: MILI (PIWIL2) piRISC loaded with piRNA #1 (26 nt); experiment: pre-steady-state target cleavage rate (min^-1); MIWI and MILI are mouse PIWI proteins and EfPiwi is from a freshwater sponge; tags in brackets are library labels; higher = faster piRNA-guided slicing of the target; settings: guide: piRNA #1 5'p-UGAGGUAGUAGGUUGUAUAGUAUCCA; auxiliary factor: 500 nM mouse GTSF1
# Method in brief: (§1)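 A burst-and-steady-state fit was used to obtain the pre-steady-state cleavage rate. The input data were sequencing reads of uncleaved targets, normalised to depth and to weakly complementary targets, from a […] transcribed, DNA-blocked target RNA library mixed with 1 nM active affinity-purified piRISC holding one synthetic guide, with or without 500 nM GTSF1 partner protein, in HEPES–potassium acetate buffer at 33 °C for 0–8 or 0–960 min. Three trials were pooled and k3 was capped at 0.0001 min^-1.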
# [2] = test system: MIWI (PIWIL1) piRISC loaded with piRNA #1 (30 nt); experiment: as above; settings: guide: piRNA #1 5'p-UGAGGUAGUAGGUUGUAUAGUAUCCAGAGG; auxiliary factor: 500 nM mouse GTSF1
# Method in brief: as §1
# 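Note: 1 nM active piRISC with 0.1 nM target library at 33 °C single turnover.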
Sequence,pre-steady-state target cleavage rate [1],pre-steady-state target cleavage rate [2]
GGAGACCUAUGAUUACAAGCUUCUACCUCA,0.00347 ± 0.0023,0.00127 ± 0.0045
GGAGACCUUACUAUACAACCUAUACCUCA,0.00221 ± 0.0035,0.00037 ± 0.014
GGAGACCUAUGAUAACAACCAAGUACCUCA,0.00175 ± 0.0047,0.000575 ± 0.0033
GGAGACCUAUGAAUACAACCUACUACGUGA,0.00188 ± 0.0029,0.001 ± 0.0044
GGAGUGGAUACUAUACAACCUAGUUCCUCA,0.000511 ± 0.0061,0.00152 ± 0.0029
GGAGACCUAUGAUAUCAACCUAGUUCCUCA,0.00018 ± 0.015,0.000151 ± 0.013
GGAGACCUAUGAUAACAACCUGCUACCUCA,0.00155 ± 0.0035,0.000806 ± 0.0048
GGAGACCUAUGAUAUGUUGCUAAUACCUCA,0.000535 ± 0.013,0.000794 ± 0.009
GGAGACGAUACUAUUCAUCCUACUACCUCA,0.264 ± 0.021,1.09 ± 0.061
GGAGACCUAUGUAUACAACUACUACCUCA,0.00206 ± 0.0037,0.00116 ± 0.004
GGAGUGGAUACUAUACAACCAUACUACCUCA,0.00751 ± 0.003,0.00221 ± 0.0045
GGAGACCAUACUAUACAAUCCUACUACCUCA,0.0015 ± 0.0071,0.00057 ± 0.014
GGAGACCUAUCUAUACAAUCCUACUACCUCA,0.00102 ± 0.0064,0.000603 ± 0.0085
GGAGACCUAUGAUUUCAACCUACUUCCUCA,0.00132 ± 0.0043,0.000151 ± 0.015
GGAGAGGAUACUAUACAACCUACUUGGAGA [g7:g25:cont:t1A],0.001 ± 0.0059,0.00122 ± 0.0059
GGAGACCUAUGAUAUCAACCUACAUACCUCA,0.00233 ± 0.0028,0.000191 ± 0.0093
GGAGACCUAUGAUAUCAGACCUACUACCUCA,0.000239 ± 0.012,0.00012 ± 0.025
GGAGACCUAUGAAUACAACCAACUACCACA,0.00145 ± 0.0048,0.000173 ± 0.015
GGAGACCUAUGAUAUCAAGGUACUACCUCA,0.000452 ± 0.011,0.000185 ± 0.012
GGAGACCUAUGAUAACAACCGACUACCUCA,0.00255 ± 0.0029,0.000183 ± 0.0099

# A few values from the entries so far.
# For pre-steady-state target cleavage rate [1], GGAGACCUAUGUAUACAACUACUACCUCA has 0.00206 ± 0.0037
# For pre-steady-state target cleavage rate [1], GGAGAGGAUACUAUACAACCUACUUGGAGA [g7:g25:cont:t1A] has 0.001 ± 0.0059
